Read-outs that look alike come from different tables or passages of the source. At least one structure is not confirmed: it was looked up by name or label, or the drawing left a doubt. Numbered stars: 1 amine (or outer) side, 2 acyl side, 3 side chain; on linkers, the order of the positions; unused ones are H or OH. Square brackets hold non-standard residues; d marks the D form. Side chains are listed from the residue outwards. Peptide text beside a SMILES is read from it. * marks the point of attachment. C20 diacid = O=C(O)CCCCCCCCCCCCCCCCCCC(=O)*; γGlu = O=C(O)[C@H](CCC(=O)[*:2])N[*:1]; Ac4c = NC1(C(=O)O)CCC1; AEEA = NCCOCCOCC(=O)O
Columns and labels:
Type in all cases: cell-based
human GIP R = biological target: T1, human GIP R (Homo sapiens, UniProt P48546); assay: cAMP induction in HEK293 cells expressing human GIP R (AlphaScreen cAMP kit)
T1 construct: expressed in transfected cells
T1 sequence (P48546 22-466): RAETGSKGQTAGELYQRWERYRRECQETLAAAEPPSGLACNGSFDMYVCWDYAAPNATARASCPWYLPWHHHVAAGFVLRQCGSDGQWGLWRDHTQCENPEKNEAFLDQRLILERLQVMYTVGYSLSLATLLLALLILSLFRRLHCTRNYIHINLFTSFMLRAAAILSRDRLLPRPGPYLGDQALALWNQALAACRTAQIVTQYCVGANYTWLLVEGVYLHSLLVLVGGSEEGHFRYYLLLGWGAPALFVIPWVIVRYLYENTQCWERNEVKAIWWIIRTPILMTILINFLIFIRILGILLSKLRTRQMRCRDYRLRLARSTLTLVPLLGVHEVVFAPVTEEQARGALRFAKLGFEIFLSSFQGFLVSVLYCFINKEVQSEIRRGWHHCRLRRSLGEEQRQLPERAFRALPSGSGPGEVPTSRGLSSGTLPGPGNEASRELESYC

Protein sequences, listed by entry. Tags and fused reporters are not part of them. Residues count along the entry.
UniProt P43220, 24-463: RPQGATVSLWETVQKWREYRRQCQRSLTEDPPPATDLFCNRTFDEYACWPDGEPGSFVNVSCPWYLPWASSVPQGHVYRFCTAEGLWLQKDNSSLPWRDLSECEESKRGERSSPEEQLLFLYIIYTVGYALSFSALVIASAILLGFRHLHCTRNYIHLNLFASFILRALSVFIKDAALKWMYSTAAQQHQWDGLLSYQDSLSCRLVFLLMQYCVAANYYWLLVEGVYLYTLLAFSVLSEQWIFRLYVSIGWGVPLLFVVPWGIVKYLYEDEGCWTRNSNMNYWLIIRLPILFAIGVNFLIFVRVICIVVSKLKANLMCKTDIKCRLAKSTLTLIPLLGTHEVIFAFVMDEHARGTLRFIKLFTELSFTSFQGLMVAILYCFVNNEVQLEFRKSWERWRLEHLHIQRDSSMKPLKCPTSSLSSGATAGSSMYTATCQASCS
UniProt P47871, 26-477: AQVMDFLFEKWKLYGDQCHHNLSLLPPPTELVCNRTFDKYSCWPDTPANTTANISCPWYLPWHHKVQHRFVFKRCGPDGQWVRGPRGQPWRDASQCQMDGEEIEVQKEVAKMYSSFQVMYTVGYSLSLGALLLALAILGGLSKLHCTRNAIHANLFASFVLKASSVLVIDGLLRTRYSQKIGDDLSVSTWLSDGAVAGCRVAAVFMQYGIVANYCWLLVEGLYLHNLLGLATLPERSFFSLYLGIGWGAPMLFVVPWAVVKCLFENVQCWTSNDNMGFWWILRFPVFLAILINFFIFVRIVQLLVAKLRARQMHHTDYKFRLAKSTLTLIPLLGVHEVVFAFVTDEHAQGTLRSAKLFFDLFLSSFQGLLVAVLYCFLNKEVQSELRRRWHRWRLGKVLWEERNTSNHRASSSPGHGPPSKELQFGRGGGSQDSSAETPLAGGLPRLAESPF

human GLP-1 R = biological target: T2, human GLP-1 R (Homo sapiens, UniProt P43220); assay: cAMP induction in HEK293 cells expressing human GLP-1 R (AlphaScreen cAMP kit); details: Table 2b (most comprehensive data), average EC50, cAMP, read-out: GLP1 R (EC50 in nM)
T2 construct: expressed in transfected cells

human GCG R = biological target: T3, human GCG R (Homo sapiens, UniProt P47871); assay: cAMP induction in HEK293 cells expressing human GCG R (AlphaScreen cAMP kit); details: Table 2b (most comprehensive data), average EC50, cAMP
T3 construct: expressed in transfected cells

[1] = read-out: GIP R (EC50 in nM), Table 2b (most comprehensive data), average EC50, cAMP

SMILES | EC50 (human GIP R; [1]) | EC50 (human GLP-1 R) | EC50 (human GIP R; Table 2b (most comprehensive data), average EC50, cAMP, read-out: GIP R (EC50 in nM)) | EC50 (human GCG R)
CC[C@H](C)[C@H](NC(=O)[C@H](CO)NC(=O)[C@H](Cc1ccc(O)cc1)NC(=O)[C@H](CC(=O)O)NC(=O)[C@H](CO)NC(=O)[C@@H](NC(=O)[C@H](Cc1ccccc1)NC(=O)[C@@H](NC(=O)CNC(=O)[C@H](CCC(N)=O)NC(=O)C(C)(C)NC(=O)[C@@H](N)Cc1ccc(O)cc1)[C@@H](C)O)[C@@H](C)O)C(=O)N[C@@H](Cc1ccc(O)cc1)C(=O)N[C@@H](CC(C)C)C(=O)N[C@@H](CCC(=O)O)C(=O)N[C@@H](CCCCN)C(=O)N[C@@H](CCCCN)C(=O)N[C@@H](C)C(=O)N[C@@H](C)C(=O)N[C@@H](Cc1c[nH]cn1)C(=O)N[C@@H](CC(=O)O)C(=O)N[C@@H](Cc1ccccc1)C(=O)N[C@H](C(=O)N[C@@H](CCC(=O)O)C(=O)N[C@@H](Cc1c[nH]c2ccccc12)C(=O)N[C@@H](CC(C)C)C(=O)N[C@@H](CC(C)C)C(=O)N[C@@H](CO)C(=O)N[C@@H](C)C(N)=O)C(C)C [Compound 14] (HELM PEPTIDE1{Y.[Aib].Q.G.T.F.T.S.D.Y.S.I.Y.L.E.K.K.A.A.H.D.F.V.E.W.L.L.S.A.[am]}$$$$V2.0) | 0.013 nM | 0.1 nM | – | –
CC[C@H](C)[C@H](NC(=O)[C@H](CO)NC(=O)[C@H](Cc1ccc(O)cc1)NC(=O)[C@H](CC(=O)O)NC(=O)[C@H](CO)NC(=O)[C@@H](NC(=O)[C@H](Cc1ccccc1)NC(=O)[C@@H](NC(=O)CNC(=O)[C@H](CCC(N)=O)NC(=O)C(C)(C)NC(=O)[C@@H](N)Cc1ccc(O)cc1)[C@@H](C)O)[C@@H](C)O)C(=O)N[C@@H](Cc1ccc(O)cc1)C(=O)N[C@@H](CC(C)C)C(=O)N[C@@H](CCC(=O)O)C(=O)N[C@@H](CCCCN)C(=O)N[C@@H](CCCCN)C(=O)N[C@@H](C)C(=O)N[C@@H](C)C(=O)N[C@@H](Cc1c[nH]cn1)C(=O)N[C@@H](CC(=O)O)C(=O)N[C@@H](Cc1ccccc1)C(=O)N[C@H](C(=O)N[C@@H](CCC(=O)O)C(=O)N[C@@H](Cc1c[nH]c2ccccc12)C(=O)N[C@@H](CC(C)C)C(=O)N[C@@H](CC(C)C)C(=O)N[C@@H](CO)C(=O)N[C@@H](C)C(N)=O)C(C)C [Compound 15] (HELM PEPTIDE1{Y.[Aib].Q.G.T.F.T.S.D.Y.S.I.Y.L.E.K.K.A.A.H.D.F.V.E.W.L.L.S.A.[am]}$$$$V2.0) | 0.014 nM | 0.058 nM | – | –
CC[C@H](C)[C@H](NC(=O)[C@H](CO)NC(=O)[C@H](Cc1ccc(O)cc1)NC(=O)[C@H](CC(=O)O)NC(=O)[C@H](CO)NC(=O)[C@@H](NC(=O)[C@H](Cc1ccccc1)NC(=O)[C@@H](NC(=O)CNC(=O)[C@H](CCC(N)=O)NC(=O)C1(NC(=O)[C@@H](N)Cc2ccc(O)cc2)CCC1)[C@@H](C)O)[C@@H](C)O)C(=O)N[C@@H](Cc1ccc(O)cc1)C(=O)N[C@@H](CC(C)C)C(=O)N[C@@H](CC(=O)O)C(=O)N[C@@H](CCCCN)C(=O)N[C@@H](CCCCNC(=O)COCCOCCNC(=O)COCCOCCNC(=O)CC[C@H](NC(=O)CCCCCCCCCCCCCCCCCCC(=O)O)C(=O)O)C(=O)N[C@@H](C)C(=O)N[C@@H](CCC(N)=O)C(=O)N[C@@H](CCCNC(=N)N)C(=O)N[C@@H](C)C(=O)N[C@@H](Cc1ccccc1)C(=O)N[C@H](C(=O)N[C@@H](CCC(=O)O)C(=O)N[C@@H](Cc1c[nH]c2ccccc12)C(=O)N[C@@H](CC(C)C)C(=O)N[C@@H](CC(C)C)C(=O)N[C@@H](C)C(=O)N[C@@H](CCC(N)=O)C(=O)NCC(=O)N1CCC[C@H]1C(=O)N[C@@H](CO)C(=O)N[C@@H](CO)C(=O)NCC(=O)N[C@@H](C)C(=O)N1CCC[C@H]1C(=O)N1CCC[C@H]1C(=O)N1CCC[C@H]1C(=O)N[C@@H](CO)C(N)=O)C(C)C [Compound 52] (H-Y[Ac4c]QGTFTSDYSIYLDKK([AEEA-AEEA-γGlu-C20 diacid])AQRAFVEWLLAQGPSSGAPPPS-NH2) | – | 0.007 nM | 0.007 nM | 0.114 nM

Source: patent US10131702B2, “Glucagon-GLP-1-GIP triple agonist compounds” (priority 2013, dated 2018)
